Results on five sequences are retold here after patent US20150031755.

Chains of the proteins cited; added tags and fusions are not shown. Residues count along the entry.
UniProt P10997, 34-70: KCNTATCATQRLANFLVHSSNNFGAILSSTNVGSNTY

Numbering of substitutions follows the chain as printed. Construct, isoform or probe ends are uncertain for at least one entry. For part of these data: No signal at the amounts used counts as a negative. For part of these data: Where a protein sequence is shown, tags need not be part of it.

For data set [1], the target named is T1, human alpha-CGRP (L-peptide) (Homo sapiens) (UniProt P06881).
T1 sequence: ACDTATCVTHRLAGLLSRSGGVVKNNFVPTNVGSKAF
As to the kind of experiment: activity in cells. The following applies: L-RNA; cAMP inhibition, SK-N-MC cells, 1 nM CGRP, 37 C; synthetic protein; mirror-image nucleic acid.

Data set [2] concerns the target human amylin (L-peptide) (Homo sapiens) (UniProt P10997). As to the kind of experiment: activity in cells. The note with it: L-RNA, synthetic protein, mirror-image nucleic acid.
Data set [3] shares this target. As to the kind of experiment: SPR. The following applies: L-RNA, L-dC at 41; no binding detected; synthetic protein; mirror-image nucleic acid; variant of 226-F2-001 (L).
Data set [4] deals with T2, rat alpha-CGRP (L-peptide) (Rattus norvegicus) (UniProt P01256).
T2 sequence: T1 sequence with A1S, D3N, N25D, K35E
As to the kind of experiment: activity in cells. The following applies: L-RNA, L-dC at 41, 5'-40 kDa PEG; cAMP inhibition, 1 nM rat CGRP, 37 C; synthetic protein; mirror-image nucleic acid; variant of 226-F2-001-D41.

“CCGUGCUGUCGGAGACUACUCGUCGAGUAGAAAUAGGUCCCCUCCCACGG [226-F2-001 (L)]” came in with a half-inhibitory concentration (IC50) in data set [1] of 3.5 nM.

For “GGACUGAUGGCGCGGUCCUAUUACGCCGAUAGGGUGAGGGG [amylin-binding control Spiegelmer]”, the “functional effect of the aptamer” value in data set [2] (5'-40 kDa PEG, inhibits human amylin-induced cAMP in MCF-7 cells, dose not given here) is reported as “active”.

Turning to “CGUGCUGUCGGAGACUACUCGUCGAGUAGAAAUAGGUCCCCUCCCACG [212-G1-001 (L)]”, the concentration for half-maximal inhibition (IC50) in data set [1] is 8.7 nM.

Take “CCGUGCUGUCGGAGACUACUCGUCGAGUAGAAAUAGGUCCCCUCCCACGG [226-F2-001-D41]”: the binding result in data set [3] was “no binding”.

Turning to “CCGUGCUGUCGGAGACUACUCGUCGAGUAGAAAUAGGUCCCCUCCCACGG [NOX-L41 (226-F2-001-D41-5'-40kDa-PEG)]”, the IC50 in data set [2] (L-dC at 41, 5'-40 kDa PEG, no inhibition of human amylin-induced cAMP up to 1 uM, MCF-7 cells, variant of 226-F2-001-D41) is over 1000 nM; in data set [4] it was 3.6 nM.

One may read the IC50 as the concentration at which inhibition is half-maximal. High values mean a need for much substance, low ones inhibition by little substance.
